Test results reported in the supplement of paper PMC12823440, “Inhibitors supercharge kinase turnover through native proteolytic circuits” (Nature, 2025).
Some of the results follow. The calls rarely recur for the same compound in another form.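 Kinases were expressed as nanoluciferase fusions in K562 cells and luminescence was read every 4 h between 2 and 18 h as percent of control, DMSO set to 100% and a positive control to 0%. A time point counts as decreased when the signal drops significantly (2 sigma). The hit call is the authors' own, does not follow from the count of time points alone, and its rule is not shown.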

The chains behind the UniProt entries cited, without tags or fusion partners. Where a name states a change or a piece, a line headed by the entry shows the natural chain unless it says otherwise.
UniProt Q9UQM7, whole entry: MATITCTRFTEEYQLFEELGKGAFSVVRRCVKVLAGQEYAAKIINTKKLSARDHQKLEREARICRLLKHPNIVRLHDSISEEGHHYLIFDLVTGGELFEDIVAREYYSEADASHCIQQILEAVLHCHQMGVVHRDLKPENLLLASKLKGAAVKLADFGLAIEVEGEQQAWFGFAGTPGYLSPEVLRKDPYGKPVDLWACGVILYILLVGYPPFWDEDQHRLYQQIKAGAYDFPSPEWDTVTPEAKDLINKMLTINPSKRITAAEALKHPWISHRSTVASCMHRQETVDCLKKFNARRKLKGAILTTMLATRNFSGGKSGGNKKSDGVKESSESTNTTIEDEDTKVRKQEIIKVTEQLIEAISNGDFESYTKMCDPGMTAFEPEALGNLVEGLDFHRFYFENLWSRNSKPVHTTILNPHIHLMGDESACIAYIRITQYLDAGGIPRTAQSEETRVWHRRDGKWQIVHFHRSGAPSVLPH
UniProt Q13555: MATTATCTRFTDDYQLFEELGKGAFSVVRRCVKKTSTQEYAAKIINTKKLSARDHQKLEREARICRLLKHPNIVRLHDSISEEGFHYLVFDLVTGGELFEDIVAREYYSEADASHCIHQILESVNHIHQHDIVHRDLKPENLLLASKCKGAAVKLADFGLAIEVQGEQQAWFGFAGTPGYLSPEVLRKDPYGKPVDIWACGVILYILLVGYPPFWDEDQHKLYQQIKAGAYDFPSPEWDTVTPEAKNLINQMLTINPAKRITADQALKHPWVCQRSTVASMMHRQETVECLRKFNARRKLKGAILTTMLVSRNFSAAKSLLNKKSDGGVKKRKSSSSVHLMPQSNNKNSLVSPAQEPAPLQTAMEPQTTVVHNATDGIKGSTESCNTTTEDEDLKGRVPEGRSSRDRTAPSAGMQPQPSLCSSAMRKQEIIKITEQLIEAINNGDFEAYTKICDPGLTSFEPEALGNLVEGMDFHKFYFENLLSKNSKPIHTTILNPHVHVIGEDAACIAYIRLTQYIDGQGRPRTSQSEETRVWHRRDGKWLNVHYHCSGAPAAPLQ
UniProt Q00526: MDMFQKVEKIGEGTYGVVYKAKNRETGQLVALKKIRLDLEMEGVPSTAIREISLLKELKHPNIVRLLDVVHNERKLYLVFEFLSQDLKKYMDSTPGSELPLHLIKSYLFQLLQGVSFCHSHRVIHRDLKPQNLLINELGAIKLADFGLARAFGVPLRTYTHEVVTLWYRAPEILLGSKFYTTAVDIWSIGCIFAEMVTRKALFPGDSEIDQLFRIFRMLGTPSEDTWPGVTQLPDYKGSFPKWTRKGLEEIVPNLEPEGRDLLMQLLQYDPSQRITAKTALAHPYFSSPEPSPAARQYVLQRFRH
UniProt Q00534, whole entry: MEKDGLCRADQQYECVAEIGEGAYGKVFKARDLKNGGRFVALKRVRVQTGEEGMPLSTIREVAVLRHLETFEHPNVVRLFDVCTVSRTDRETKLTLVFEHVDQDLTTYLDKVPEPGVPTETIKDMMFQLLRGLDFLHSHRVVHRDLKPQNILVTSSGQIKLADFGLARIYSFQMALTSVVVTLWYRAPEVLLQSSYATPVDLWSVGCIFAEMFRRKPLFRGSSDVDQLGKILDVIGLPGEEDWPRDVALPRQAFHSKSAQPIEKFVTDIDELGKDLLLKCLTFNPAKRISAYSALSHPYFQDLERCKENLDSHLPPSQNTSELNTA
UniProt O96017, whole entry: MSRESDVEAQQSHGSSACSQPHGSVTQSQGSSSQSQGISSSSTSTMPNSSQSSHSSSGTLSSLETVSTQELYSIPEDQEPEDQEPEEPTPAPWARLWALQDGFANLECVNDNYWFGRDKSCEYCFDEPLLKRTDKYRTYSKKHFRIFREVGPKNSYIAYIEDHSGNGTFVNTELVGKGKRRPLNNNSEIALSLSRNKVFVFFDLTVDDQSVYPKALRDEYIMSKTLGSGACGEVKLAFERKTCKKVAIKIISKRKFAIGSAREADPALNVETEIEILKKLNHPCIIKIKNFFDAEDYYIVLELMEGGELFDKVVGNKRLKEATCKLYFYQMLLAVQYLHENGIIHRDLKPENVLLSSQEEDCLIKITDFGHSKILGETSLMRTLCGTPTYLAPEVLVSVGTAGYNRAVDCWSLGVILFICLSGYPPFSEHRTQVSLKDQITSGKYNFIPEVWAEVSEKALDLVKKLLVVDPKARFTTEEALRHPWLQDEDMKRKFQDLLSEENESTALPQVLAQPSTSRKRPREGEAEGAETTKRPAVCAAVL
UniProt P07333, whole entry: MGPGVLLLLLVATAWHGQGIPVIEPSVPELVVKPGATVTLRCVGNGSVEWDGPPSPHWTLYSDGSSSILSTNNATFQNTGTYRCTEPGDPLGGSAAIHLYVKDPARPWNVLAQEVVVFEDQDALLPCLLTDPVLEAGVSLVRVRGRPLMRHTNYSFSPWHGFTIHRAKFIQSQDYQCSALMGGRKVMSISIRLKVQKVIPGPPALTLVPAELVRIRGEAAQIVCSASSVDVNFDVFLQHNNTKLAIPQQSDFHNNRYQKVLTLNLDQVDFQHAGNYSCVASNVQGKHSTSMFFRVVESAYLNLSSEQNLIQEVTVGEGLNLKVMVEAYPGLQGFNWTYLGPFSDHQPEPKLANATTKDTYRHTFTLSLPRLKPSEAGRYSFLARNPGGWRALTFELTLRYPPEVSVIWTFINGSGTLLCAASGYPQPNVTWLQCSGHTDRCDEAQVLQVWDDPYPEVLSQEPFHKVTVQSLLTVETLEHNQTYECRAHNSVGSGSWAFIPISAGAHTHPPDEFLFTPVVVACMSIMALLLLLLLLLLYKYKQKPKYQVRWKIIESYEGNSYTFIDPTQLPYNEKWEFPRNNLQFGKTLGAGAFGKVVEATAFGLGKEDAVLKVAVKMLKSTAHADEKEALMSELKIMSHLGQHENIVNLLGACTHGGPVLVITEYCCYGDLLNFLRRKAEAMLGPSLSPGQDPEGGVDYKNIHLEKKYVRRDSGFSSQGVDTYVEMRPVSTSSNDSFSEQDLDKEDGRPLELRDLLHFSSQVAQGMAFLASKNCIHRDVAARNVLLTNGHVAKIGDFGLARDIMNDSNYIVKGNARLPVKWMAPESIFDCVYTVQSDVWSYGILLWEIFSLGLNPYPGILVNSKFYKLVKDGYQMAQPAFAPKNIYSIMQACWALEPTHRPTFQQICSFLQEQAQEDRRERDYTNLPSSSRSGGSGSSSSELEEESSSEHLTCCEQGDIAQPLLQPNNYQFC
UniProt P41240: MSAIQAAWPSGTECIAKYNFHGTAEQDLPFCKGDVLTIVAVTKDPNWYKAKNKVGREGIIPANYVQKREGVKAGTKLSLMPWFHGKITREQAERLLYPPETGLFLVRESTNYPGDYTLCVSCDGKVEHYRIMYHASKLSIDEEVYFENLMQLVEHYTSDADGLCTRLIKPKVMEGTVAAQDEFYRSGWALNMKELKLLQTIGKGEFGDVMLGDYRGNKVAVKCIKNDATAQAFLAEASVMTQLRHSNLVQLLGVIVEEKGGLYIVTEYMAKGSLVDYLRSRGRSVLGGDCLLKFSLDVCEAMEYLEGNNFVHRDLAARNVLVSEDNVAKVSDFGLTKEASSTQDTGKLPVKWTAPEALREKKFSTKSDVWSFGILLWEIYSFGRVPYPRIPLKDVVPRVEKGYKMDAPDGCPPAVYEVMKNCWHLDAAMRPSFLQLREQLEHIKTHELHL
UniProt P48729: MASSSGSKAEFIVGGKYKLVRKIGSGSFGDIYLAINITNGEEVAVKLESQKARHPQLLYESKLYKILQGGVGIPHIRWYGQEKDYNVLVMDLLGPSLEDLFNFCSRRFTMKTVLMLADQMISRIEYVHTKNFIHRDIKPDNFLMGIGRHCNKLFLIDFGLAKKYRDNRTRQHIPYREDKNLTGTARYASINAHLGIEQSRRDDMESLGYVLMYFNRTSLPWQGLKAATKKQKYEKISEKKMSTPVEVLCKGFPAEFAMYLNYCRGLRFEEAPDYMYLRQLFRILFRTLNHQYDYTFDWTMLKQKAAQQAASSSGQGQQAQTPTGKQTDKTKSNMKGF
UniProt P48730: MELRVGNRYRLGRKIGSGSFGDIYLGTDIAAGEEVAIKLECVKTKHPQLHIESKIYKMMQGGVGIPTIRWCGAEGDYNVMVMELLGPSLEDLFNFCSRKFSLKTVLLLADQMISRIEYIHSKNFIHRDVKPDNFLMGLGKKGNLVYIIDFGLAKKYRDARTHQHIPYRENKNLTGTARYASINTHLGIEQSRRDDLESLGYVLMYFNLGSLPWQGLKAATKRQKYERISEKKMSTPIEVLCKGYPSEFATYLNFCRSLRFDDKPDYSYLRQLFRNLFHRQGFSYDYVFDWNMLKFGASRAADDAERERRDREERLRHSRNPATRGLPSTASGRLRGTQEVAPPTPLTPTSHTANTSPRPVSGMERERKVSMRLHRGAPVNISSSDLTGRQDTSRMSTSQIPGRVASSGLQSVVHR
UniProt Q08345: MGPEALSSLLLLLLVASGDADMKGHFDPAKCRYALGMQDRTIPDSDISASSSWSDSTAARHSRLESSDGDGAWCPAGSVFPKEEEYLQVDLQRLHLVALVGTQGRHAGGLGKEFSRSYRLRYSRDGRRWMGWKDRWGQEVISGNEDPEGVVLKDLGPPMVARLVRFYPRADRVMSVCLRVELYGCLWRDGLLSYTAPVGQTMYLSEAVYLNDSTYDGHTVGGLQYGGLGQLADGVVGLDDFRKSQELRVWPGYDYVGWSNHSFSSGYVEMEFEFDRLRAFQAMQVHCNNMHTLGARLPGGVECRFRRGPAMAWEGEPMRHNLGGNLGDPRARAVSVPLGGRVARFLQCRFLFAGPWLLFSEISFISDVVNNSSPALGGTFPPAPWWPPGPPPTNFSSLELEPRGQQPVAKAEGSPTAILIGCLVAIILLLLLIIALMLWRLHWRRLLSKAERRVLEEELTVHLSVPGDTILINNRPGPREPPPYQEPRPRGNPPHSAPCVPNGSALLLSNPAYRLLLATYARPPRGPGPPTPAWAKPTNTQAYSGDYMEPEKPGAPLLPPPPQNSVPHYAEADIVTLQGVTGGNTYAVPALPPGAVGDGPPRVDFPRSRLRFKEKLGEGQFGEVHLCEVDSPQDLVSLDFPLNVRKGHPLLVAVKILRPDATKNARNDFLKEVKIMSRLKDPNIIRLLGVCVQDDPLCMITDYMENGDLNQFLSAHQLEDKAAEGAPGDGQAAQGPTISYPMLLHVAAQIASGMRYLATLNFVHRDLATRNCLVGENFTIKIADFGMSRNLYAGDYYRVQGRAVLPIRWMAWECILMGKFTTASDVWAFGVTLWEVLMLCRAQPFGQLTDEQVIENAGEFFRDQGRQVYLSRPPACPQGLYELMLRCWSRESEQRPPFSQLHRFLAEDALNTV
UniProt Q9Y463, whole entry, looked up: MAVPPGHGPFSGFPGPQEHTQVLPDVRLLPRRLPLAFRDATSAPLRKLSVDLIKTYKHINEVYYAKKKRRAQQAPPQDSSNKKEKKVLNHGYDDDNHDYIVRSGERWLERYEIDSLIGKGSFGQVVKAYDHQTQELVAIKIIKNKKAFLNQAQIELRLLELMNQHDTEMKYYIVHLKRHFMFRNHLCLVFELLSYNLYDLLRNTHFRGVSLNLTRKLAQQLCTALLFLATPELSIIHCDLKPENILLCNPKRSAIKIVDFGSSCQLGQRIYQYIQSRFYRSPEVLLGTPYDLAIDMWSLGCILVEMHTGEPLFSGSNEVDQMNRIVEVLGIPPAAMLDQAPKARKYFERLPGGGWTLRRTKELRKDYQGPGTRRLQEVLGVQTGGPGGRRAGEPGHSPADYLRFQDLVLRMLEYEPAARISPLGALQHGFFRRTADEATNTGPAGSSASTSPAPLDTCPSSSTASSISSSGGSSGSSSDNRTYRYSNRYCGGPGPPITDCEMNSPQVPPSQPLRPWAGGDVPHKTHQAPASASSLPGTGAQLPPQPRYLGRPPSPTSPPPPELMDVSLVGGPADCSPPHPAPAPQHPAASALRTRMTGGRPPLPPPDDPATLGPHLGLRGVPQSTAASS
UniProt Q92630: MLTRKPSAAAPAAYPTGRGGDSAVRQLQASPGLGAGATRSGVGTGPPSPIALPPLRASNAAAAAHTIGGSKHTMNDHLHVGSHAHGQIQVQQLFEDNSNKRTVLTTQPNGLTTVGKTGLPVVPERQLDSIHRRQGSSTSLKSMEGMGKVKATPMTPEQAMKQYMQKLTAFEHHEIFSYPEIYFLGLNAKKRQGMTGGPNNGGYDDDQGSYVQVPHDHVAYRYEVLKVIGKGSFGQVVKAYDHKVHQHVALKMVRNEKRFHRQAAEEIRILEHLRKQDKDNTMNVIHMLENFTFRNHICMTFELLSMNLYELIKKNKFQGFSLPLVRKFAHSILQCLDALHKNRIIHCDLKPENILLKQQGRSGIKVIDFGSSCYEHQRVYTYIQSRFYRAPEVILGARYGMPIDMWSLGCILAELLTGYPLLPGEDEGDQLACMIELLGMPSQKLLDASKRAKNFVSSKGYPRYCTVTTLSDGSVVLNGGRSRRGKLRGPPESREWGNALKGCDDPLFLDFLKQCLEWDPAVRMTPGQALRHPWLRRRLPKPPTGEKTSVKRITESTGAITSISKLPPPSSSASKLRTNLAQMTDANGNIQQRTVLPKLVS

How the values were obtained:
Experiment in all cases: number of time points (of 5) at which kinase-Nluc abundance scored as decreased, DMSO-normalised (count); higher = more persistent destabilization
Details in all cases: K562; 2-18 h
[1] = target: CAMK2A (UniProt Q9UQM7)
[2] = target: CAMK2G (UniProt Q13555)
[3] = target: CDK10 (UniProt Q15131)
[4] = target: CDK2 (UniProt P24941)
[5] = target: CDK3 (UniProt Q00526)
[6] = target: CDK5 (UniProt Q00535)
[7] = target: CDK6 (UniProt Q00534)
[8] = target: CHEK2 (UniProt O96017)
[9] = target: CSF1R (UniProt P07333)
[10] = target: CSK (UniProt P41240)
[11] = target: CSNK1A1 (UniProt P48729)
[12] = target: CSNK1D (UniProt P48730)
[13] = target: DDR1 (UniProt Q08345)
[14] = target: DYRK1B (UniProt Q9Y463)
[15] = target: DYRK2 (UniProt Q92630)
[16] = target: EGFR (UniProt P00533)
[17] = target: EGFR_G719S (UniProt P00533)
[18] = target: EGFR_G719S_T790M (UniProt P00533)
[19] = target: EGFR_L718V (UniProt P00533)
[20] = target: EGFR_L858R (UniProt P00533)

Measured: number of time points

COc1ccc(-n2c(C)c([N+](=O)[O-])c3ccc(O)cc32)cc1 (10 µM)
0: all assays above

CC(C)c1ccc(CC(=O)N2CCN(c3ccc(C#N)nn3)CC2)cc1 (10 µM)
0: all assays above

COc1ccc(CCNc2ncc3c(=O)n(-c4cccc(F)c4)c(=O)[nH]c3n2)cc1OC (2 µM)
0: all assays above

2 neighbouring compounds from above, quoted:
COc1ccc(-n2c(C)c([N+](=O)[O-])c3ccc(O)cc32)cc1 (10 µM)
0: all assays above

CC(C)c1ccc(CC(=O)N2CCN(c3ccc(C#N)nn3)CC2)cc1 (10 µM)
0: all assays above

Additional structures follow:

CC(=O)NCCc1c[nH]c2ccc(O)cc12 [N-Acetyl-5-hydroxytryptamine] (10 µM)
0: all assays above

CCn1nc(C2CCN(C(=O)CCO)CC2)nc1-c1cnc(N)c(-c2nnc(C(C)(C)C)o2)n1 (10 µM)
0: all assays above

COc1cc(C(C)=O)cc(OC)c1O [Acetosyringone] (10 µM)
0: all assays above
